Test results as given in patent US20140158116A1, “INHIBITING TRPA1 FOR THE TREATMENT OF ASTHMA” (Cubist Pharmaceuticals, Inc., priority 2012, published 2014).
The name of at least one read-out is uncertain.

Protein sequences, listed by entry. Tags and fused reporters are not part of them.
UniProt Q9HBA0, whole entry: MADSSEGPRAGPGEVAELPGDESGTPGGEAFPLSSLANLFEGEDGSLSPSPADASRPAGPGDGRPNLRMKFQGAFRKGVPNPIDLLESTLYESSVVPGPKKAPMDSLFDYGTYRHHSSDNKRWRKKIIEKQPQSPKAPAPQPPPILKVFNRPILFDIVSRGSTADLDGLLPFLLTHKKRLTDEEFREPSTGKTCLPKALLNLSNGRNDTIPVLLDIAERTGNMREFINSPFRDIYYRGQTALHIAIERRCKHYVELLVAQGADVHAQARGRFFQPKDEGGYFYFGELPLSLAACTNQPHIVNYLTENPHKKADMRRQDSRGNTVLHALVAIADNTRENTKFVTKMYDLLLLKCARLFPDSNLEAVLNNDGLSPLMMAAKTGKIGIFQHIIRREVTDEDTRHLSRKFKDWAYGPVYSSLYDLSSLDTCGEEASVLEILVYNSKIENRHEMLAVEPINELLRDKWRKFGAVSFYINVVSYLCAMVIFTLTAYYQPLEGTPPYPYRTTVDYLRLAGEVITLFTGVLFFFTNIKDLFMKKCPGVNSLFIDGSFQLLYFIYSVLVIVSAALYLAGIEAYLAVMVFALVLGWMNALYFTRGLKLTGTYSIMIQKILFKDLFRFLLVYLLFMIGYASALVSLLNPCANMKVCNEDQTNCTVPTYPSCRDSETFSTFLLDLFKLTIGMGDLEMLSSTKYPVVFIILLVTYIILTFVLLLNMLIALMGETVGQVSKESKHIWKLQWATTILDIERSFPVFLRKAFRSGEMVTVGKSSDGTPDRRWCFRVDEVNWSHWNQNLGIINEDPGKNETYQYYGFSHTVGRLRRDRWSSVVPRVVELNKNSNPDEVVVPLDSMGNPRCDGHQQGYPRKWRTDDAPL

Target: hTRPV4 Agonist (Homo sapiens, UniProt Q9HBA0)
Test: Patch clamp selectivity, hTRPV4 agonist mode
Format: cell-based
Details: no current activation, tested 3.2, 10, 32 μM, Inward (−80 mV)

C[C@H]1CCCN1c1ncc(-c2cccc(NC(=O)Cn3cnc4c3c(=O)n(C)c(=O)n4C)n2)cn1 [Formula (Ia)]
IC50 (agonist effect): No Effect
